Experimental data: US10513539B2 (Ruprecht-Karls-Universitat Heidelberg, priority 2011, dated 2019)

Experiment: general procedure: Fmoc solid-phase peptide synthesis; polystyrene copolymerized with polyoxyethylen; dicyclohexylcarbodiimide, hydroxybenzotriazole, benzotriazil-1-yl-oxytris (dimet)

With KNLSTSNPLGFFPDHQLDPy (SEQ ID NO:21) the final ms purity (conjugation step, Mass Spectrometry) was 97% or higher.

With “stearoyl-[K(DOTA)]3-NLSTSNPLGFFPDHQLDP-amide” the conjugation yield (conjugation step) was 55%.

In the case of “stearoyl-[K(DOTA[Gd])]3-NLSTSNPLGFFPDHQLDP-amide”, the step yield (late stage modification step) is reported as 77%.
